Data taken from patent US11254689B2, “Compounds” (priority 2017, dated 2022).
Some of these results come from one statement about several compounds together.

Test system: M. tuberculosis W4-E1-GFP (Mutant)
Assay type: cell-based, Mycobacterium tuberculosis
Details: read-out: average EC50_Mutant

Row | SMILES | EC50 [nM]
1 | CCCCCCOC1=NOC2(CCN(C(=O)CCC(F)(F)F)CC2)C1 [Example 4, 4,4,4-trifluoro-1-(3-hexyloxy-1-oxa-2,8-diazaspiro[4.5]dec-2-en-8-yl)butan-1-one] | < 3000
2 | CC(C)COC1=NOC2(CCN(C(=O)CCC(F)(F)F)CC2)C1 [Example 3, 4,4,4-trifluoro-1-(3-isobutoxy-1-oxa-2,8-diazaspiro[4.5]dec-2-en-8-yl)butan-1-one] | < 3000
3 | CC1=NOC2(CCN(C(=O)CCC(F)(F)F)CC2)C1 [Example 9, 4,4,4-trifluoro-1-(3-methyl-1-oxa-2,8-diazaspiro[4.5]dec-2-en-8-yl)butan-1-one] | < 3000
4 | O=C(CCC(F)(F)F)N1CCC2(CC1)CC(F)=NO2 [Example 12, 4,4,4-trifluoro-1-(3-fluoro-1-oxa-2,8-diazaspiro[4.5]dec-2-en-8-yl)butan-1-one] | < 3000
